According to ChEMBL document CHEMBL4177560, “Functional evaluation of synthetic flavonoids and chalcones for potential antiviral and anticancer properties” (Bioorg Med Chem Lett, 2017):
≈ marks a conversion by molar mass, not a printed value.

Test system: Ishikawa
Assay: Inhibition of estradiol-induced proliferation in human Ishikawa cells after 72 hrs by Cell-titer-Glo assay
Assay type: functional, cell-based

CC/C(=C(\c1ccccc1)c1ccc(OCCN(C)C)cc1)c1ccccc1 [TAMOXIFEN]
IC50: 7.87 µg/mL (≈ 21.2 µM)
